Measured values reported in US4757133A, “Physiologically active peptide” (Eisai Co., Ltd., priority 1986, dated 1988).
Not every detail of the peptide structures is certain; ends, links or a residue may be inferred.

Assays:
carotid artery pressure = assay: Determination of carotid artery pressure on rat (hypotensive activity); type: in vivo; settings: urethane-anesthetized SD male rat, 12.5 to 400 pmol/kg into the carotid artery; required amount of VIP-NH2 taken as 100%
[1] = test system: smooth muscle of a bronchus; assay: Relaxation of muscle of bronchus removed from guinea pig (histamine-contracted tracheal chain, four-point assay); settings: isolated guinea pig trachea chain, 6.5×10^-6 M histamine in Krebs solution at 37° C.; samples at 10^-5 M; area value of VIP-NH2 taken as 100%
Description: A. Determination on Relaxation of Muscle of Bronchus Removed from Guinea Pig:
The juglar vein of a male guinea pig weighing 300 g or more is cut, causing the guinea pig to be bled to death. The guinea pig undergoes thoracotomy. Immediately after the thoracotomy, 3 cm of the trachea is taken out. The trachea is immediately put in a Krebs solution. It is then cut into seven equal rings, and the cartilages are connected to one another with a cotton yarn to form a chain. Subsequently, the smooth muscle parts and cartilages opposite them are cut, so that the smooth muscle parts can be connected to one another. The preparation thus prepared is placed in an isothermic glass cell having an internal capacity of about 7 ml and suspended from above. The lower part of the preparation is fixed, while the upper part is connected to an isometric transducer, to which 0.5 g of a load has been applied, in order to determine the relaxation reaction. Sufficient amounts of 95% oxygen and 5% carbon dioxide gas are blown into the preparation. Further, a Krebs solution of 37° C. containing 6.5×10^-6 M histamine is dropped on the preparation from above at a flow rate of 3.3 ml/min. The relaxation reaction takes place to an extent proportional to the amount of a sample added to the dropped solution. […] The value of the area (height×time) in relaxation of each case is determined. […]

CC[C@H](C)[C@H](NC(=O)[C@H](CO)NC(=O)[C@H](CC(N)=O)NC(=O)[C@H](CC(C)C)NC(=O)[C@H](Cc1ccc(O)cc1)NC(=O)[C@H](CCCCN)NC(=O)[C@H](CCCCN)NC(=O)[C@@H](NC(=O)[C@H](C)NC(=O)[C@H](CCSC)NC(=O)[C@H](CCC(N)=O)NC(=O)[C@H](CCCCN)NC(=O)[C@H](CCCNC(=N)N)NC(=O)[C@H](CC(C)C)NC(=O)[C@H](CCCNC(=N)N)NC(=O)[C@@H](NC(=O)[C@H](Cc1ccc(O)cc1)NC(=O)[C@H](CC(N)=O)NC(=O)[C@H](CC(=O)O)NC(=O)[C@@H](NC(=O)[C@H](Cc1ccccc1)NC(=O)[C@@H](NC(=O)[C@H](C)NC(=O)[C@H](CC(=O)O)NC(=O)[C@H](CO)NC(=O)[C@@H](N)Cc1c[nH]cn1)C(C)C)[C@@H](C)O)[C@@H](C)O)C(C)C)C(=O)N[C@@H](CC(C)C)C(=O)N[C@@H](CC(N)=O)C(N)=O [VIP - NH2, vasoactive intestinal polypeptide, reference compound]
B: specific activity (%) obtained by method B (amount required to produce a drop of 15 mmHg in blood pressure, relative to VIP-NH2) (carotid artery pressure): 100% | A: specific activity (%) obtained by method A (relaxation area value relative to VIP-NH2) [1]: 100%
